From the supplement of paper PMC12823440, “Inhibitors supercharge kinase turnover through native proteolytic circuits” (Nature, 2025)
Structures can show the parent of a compound that is named as a salt. Some of the results follow. Hit calls seldom repeat between salt and free forms of one compound.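 Kinases, fused to nanoluciferase, were expressed in K562 cells; luminescence was measured every 4 h from 2 to 18 h as percent of control (DMSO = 100%, positive control = 0%). A time point is decreased if signal falls significantly (2 sigma). Hits were called by the authors by a rule that is not shown; the count of time points alone does not decide it.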

Amino acid sequences for entries named in this document (tags omitted). A change or cut given only in a name is not applied to a line headed by its entry.
UniProt P48729: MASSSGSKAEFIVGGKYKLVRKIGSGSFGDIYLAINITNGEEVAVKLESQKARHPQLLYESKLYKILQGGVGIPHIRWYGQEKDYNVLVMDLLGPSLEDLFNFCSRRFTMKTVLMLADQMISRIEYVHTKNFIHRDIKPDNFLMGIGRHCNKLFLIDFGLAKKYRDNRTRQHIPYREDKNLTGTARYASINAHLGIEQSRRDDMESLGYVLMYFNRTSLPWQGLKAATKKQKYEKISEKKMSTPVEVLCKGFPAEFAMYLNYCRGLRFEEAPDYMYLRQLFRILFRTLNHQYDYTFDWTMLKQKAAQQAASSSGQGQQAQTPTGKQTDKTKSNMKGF
UniProt Q08345: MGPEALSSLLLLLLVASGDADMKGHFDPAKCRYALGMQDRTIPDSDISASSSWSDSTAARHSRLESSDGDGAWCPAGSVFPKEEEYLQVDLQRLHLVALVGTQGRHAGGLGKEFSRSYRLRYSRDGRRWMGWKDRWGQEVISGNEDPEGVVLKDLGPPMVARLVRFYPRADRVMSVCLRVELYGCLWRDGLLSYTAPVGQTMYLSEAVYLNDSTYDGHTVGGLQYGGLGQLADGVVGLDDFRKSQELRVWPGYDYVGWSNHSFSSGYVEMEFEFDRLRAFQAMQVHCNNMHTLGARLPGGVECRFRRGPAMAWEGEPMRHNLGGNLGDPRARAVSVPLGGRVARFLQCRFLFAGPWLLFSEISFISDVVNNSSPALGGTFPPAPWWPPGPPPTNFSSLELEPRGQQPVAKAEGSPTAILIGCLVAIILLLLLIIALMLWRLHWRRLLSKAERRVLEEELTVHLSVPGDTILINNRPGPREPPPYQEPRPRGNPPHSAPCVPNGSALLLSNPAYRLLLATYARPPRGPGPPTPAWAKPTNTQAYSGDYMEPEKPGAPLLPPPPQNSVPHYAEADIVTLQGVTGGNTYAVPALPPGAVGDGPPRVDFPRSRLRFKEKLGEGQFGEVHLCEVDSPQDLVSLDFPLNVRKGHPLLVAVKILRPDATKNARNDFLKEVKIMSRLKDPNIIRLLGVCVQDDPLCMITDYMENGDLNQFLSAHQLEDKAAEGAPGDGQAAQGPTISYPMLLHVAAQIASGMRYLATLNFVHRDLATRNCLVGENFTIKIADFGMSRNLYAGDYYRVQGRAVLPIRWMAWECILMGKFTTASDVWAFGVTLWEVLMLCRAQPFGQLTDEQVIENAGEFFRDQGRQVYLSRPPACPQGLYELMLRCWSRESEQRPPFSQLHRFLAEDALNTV
UniProt Q92630: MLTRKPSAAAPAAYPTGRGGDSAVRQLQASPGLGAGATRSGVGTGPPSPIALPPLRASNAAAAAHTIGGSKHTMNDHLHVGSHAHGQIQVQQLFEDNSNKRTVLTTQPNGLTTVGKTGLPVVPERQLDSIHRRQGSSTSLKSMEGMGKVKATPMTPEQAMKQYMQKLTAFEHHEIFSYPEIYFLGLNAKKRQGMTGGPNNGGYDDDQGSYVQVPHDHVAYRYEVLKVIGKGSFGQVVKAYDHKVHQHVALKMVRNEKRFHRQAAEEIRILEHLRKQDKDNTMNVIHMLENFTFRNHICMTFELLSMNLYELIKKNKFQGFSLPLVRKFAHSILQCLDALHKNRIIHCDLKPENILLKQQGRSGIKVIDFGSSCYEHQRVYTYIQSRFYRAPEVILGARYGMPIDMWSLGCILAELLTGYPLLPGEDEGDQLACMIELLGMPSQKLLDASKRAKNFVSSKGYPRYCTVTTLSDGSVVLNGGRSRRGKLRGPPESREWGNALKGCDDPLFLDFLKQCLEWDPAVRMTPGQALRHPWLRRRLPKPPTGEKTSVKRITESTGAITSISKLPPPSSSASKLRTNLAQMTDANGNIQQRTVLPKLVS
UniProt P29317, whole entry: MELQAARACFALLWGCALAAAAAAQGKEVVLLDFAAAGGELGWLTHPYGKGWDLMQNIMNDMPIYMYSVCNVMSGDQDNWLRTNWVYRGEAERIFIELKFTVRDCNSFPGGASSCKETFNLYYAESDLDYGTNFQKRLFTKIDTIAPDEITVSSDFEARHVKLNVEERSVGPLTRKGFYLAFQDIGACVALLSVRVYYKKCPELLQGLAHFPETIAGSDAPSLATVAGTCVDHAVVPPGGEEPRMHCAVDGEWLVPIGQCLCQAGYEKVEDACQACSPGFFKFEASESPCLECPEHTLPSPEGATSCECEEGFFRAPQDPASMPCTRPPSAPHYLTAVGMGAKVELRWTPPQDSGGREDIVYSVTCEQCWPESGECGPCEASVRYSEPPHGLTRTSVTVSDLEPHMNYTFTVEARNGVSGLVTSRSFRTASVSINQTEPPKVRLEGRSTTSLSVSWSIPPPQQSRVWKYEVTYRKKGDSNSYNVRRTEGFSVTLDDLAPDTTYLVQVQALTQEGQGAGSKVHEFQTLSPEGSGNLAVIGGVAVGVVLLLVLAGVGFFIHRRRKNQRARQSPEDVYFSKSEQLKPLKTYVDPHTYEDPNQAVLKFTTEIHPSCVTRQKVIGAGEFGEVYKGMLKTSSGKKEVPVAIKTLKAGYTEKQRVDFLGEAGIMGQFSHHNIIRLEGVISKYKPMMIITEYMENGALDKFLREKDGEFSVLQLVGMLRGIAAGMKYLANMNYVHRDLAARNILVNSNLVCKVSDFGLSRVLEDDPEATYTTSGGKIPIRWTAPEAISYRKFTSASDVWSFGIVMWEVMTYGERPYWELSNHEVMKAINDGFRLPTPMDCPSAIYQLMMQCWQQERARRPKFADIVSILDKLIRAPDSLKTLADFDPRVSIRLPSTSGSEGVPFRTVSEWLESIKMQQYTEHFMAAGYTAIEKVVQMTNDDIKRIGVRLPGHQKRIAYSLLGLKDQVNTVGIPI
UniProt P21860, whole entry: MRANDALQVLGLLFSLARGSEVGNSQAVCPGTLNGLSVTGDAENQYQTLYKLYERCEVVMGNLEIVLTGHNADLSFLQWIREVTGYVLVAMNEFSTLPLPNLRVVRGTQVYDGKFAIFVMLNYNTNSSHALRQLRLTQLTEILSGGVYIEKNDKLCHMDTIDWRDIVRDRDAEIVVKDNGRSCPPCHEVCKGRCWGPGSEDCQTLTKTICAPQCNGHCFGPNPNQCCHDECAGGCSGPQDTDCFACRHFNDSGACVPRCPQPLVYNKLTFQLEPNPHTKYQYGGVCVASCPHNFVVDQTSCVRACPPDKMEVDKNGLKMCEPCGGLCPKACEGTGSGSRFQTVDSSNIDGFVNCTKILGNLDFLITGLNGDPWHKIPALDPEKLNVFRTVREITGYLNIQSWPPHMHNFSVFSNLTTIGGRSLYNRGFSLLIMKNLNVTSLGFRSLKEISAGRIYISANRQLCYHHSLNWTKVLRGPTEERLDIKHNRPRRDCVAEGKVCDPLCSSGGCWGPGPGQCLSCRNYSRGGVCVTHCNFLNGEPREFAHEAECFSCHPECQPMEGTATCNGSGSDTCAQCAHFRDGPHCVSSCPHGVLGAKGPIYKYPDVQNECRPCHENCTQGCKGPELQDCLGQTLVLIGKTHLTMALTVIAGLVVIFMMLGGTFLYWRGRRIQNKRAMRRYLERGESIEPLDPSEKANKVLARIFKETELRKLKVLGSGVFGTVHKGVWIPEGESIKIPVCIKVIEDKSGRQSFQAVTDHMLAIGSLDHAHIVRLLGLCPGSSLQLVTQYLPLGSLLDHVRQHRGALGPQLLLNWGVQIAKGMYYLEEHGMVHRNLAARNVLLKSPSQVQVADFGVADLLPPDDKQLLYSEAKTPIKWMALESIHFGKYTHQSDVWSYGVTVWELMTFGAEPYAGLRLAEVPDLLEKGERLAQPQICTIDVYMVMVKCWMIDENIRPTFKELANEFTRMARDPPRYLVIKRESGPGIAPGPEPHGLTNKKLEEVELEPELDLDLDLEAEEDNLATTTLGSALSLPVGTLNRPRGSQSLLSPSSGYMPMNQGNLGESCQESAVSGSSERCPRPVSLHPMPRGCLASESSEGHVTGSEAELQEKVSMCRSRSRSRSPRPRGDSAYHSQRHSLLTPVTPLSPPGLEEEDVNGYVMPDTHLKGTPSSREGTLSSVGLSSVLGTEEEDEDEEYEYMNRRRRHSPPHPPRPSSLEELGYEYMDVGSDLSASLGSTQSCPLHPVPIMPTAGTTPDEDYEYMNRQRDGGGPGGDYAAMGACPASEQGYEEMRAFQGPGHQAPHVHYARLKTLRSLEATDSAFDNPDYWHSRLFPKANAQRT
UniProt Q15303, whole entry R711C: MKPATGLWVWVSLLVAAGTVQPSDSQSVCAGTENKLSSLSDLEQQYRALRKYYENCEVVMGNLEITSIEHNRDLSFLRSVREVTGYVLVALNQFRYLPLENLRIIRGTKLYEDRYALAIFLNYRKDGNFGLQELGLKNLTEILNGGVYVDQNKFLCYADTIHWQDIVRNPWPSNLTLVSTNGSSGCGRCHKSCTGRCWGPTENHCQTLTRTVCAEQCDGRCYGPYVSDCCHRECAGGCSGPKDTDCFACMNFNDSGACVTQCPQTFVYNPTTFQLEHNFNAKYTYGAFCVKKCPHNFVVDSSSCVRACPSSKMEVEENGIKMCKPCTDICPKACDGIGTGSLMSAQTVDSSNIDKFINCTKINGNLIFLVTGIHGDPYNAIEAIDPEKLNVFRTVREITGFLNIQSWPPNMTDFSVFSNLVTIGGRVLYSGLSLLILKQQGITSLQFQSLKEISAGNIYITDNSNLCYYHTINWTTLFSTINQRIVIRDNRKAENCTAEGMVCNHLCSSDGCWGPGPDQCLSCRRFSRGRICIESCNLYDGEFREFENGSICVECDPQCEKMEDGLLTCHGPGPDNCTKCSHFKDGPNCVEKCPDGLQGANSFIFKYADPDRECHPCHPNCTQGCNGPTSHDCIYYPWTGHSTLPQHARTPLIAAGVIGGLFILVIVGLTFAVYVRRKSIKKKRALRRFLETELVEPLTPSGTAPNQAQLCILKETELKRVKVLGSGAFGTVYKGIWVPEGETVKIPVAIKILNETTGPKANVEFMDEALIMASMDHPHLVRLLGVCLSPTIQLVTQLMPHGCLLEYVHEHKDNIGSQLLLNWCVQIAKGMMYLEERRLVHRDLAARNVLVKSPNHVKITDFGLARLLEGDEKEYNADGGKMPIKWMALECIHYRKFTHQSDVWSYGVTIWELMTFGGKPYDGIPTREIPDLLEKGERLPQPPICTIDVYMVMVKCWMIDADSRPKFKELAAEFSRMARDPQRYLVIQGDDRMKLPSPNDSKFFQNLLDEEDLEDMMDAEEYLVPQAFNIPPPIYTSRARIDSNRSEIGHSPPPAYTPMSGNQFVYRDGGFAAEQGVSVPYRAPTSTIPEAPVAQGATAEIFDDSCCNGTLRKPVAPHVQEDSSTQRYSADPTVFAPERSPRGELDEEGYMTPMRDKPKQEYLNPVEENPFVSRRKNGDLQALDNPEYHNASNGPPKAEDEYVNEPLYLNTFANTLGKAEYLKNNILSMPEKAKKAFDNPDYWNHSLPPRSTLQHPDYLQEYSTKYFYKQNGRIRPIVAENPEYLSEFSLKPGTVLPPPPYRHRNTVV
UniProt P22607, whole entry, looked up: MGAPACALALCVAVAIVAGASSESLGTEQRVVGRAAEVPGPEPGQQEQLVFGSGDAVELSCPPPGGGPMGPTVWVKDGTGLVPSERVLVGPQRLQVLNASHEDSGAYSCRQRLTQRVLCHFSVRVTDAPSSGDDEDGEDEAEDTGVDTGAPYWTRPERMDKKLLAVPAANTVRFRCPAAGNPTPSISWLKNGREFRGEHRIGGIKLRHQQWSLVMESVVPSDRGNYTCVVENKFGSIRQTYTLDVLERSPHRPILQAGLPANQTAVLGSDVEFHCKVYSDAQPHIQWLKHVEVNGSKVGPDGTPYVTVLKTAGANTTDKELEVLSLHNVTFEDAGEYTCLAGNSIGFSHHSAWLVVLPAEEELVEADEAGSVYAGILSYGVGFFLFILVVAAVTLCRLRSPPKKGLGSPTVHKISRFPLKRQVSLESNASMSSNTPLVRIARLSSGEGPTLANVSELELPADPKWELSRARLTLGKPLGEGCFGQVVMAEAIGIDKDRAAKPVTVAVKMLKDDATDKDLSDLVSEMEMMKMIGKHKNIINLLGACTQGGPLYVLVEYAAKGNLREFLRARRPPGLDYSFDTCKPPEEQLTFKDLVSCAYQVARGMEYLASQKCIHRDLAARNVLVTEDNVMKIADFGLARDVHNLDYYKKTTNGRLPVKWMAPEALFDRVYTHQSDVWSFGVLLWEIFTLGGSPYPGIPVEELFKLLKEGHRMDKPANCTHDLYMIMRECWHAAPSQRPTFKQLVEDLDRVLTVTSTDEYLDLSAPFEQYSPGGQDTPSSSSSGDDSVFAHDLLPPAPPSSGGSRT

What was measured:
Test in all cases: number of time points (of 5) at which kinase-Nluc abundance scored as decreased, DMSO-normalised (count); higher = more persistent destabilization
Conditions in all cases: K562; 2-18 h
CSNK1A1 = CSNK1A1 (UniProt P48729)
CSNK1D = CSNK1D (UniProt P48730)
DDR1 = DDR1 (UniProt Q08345)
DYRK1B = DYRK1B (UniProt Q9Y463)
DYRK2 = DYRK2 (UniProt Q92630)
EGFR = EGFR (UniProt P00533)
EGFR_G719S = EGFR_G719S (UniProt P00533)
EGFR_G719S_T790M = EGFR_G719S_T790M (UniProt P00533)
EGFR_L718V = EGFR_L718V (UniProt P00533)
EGFR_L858R = EGFR_L858R (UniProt P00533)
EGFR_L861Q = EGFR_L861Q (UniProt P00533)
EGFR_T790M = EGFR_T790M (UniProt P00533)
EPHA2 = EPHA2 (UniProt P29317)
ERBB3 = ERBB3 (UniProt P21860)
[1] = target: ERBB4_R711C (clone: ERBB4_mut) (UniProt Q15303)
ERN1 = ERN1 (UniProt O75460)
FGFR1 = FGFR1 (UniProt P11362)
FGFR2 = FGFR2 (UniProt P21802)
FGFR3 = FGFR3 (UniProt P22607)
FGR = FGR (UniProt P09769)

Row | Structure (SMILES) | number of time points (CSNK1A1) | number of time points (CSNK1D) | number of time points (DDR1) | number of time points (DYRK1B) | number of time points (DYRK2) | number of time points (EGFR) | number of time points (EGFR_G719S) | number of time points (EGFR_G719S_T790M) | number of time points (EGFR_L718V) | number of time points (EGFR_L858R) | number of time points (EGFR_L861Q) | number of time points (EGFR_T790M) | number of time points (EPHA2) | number of time points (ERBB3) | number of time points [1] | number of time points (ERN1) | number of time points (FGFR1) | number of time points (FGFR2) | number of time points (FGFR3) | number of time points (FGR)
1 | Cc1nc(Nc2ncc(C(=O)Nc3c(C)cccc3Cl)s2)cc(N2CCN(C(=O)CCCCCCC(=O)N[C@H](C(=O)N3C[C@H](O)C[C@H]3C(=O)NCc3ccc(-c4scnc4C)cc3)C(C)(C)C)CC2)n1 (2.5 µM) | 2 | 3 | 4 | 1 | 4 | 2 | 1 | 0 | 2 | 2 | 2 | 1 | 1 | 3 | 3 | 2 | 2 | 3 | 1 | 3
2 | COc1cc2nccc(Oc3ccc(NC(=O)Nc4ccc(F)cc4F)c(F)c3)c2cc1OC (10 µM) | 0 | 0 | 0 | 0 | 3 | 1 | 1 | 0 | 0 | 0 | 0 | 0 | 0 | 0 | 0 | 0 | 1 | 1 | 0 | 0
3 | CC1=C(C(=O)Nc2ccc3[nH]ncc3c2)C(c2ccc(F)c(C(=O)NCc3ccccn3)c2)NC(=O)N1 (stereo not given) (10 µM) | 0 | 0 | 0 | 0 | 0 | 0 | 0 | 0 | 0 | 0 | 0 | 0 | 0 | 0 | 0 | 0 | 0 | 0 | 0 | 0
4 | C=CC(=O)N1CCC[C@@H](n2c(=O)n(-c3ccc(Oc4ccccc4)cc3)c3c(N)nccc32)C1 [Tolebrutinib] (10 µM) | 0 | 0 | 0 | 0 | 0 | 0 | 0 | 0 | 0 | 0 | 0 | 0 | 0 | 0 | 0 | 0 | 0 | 0 | 0 | 0
5 | C=CCN(/C=C1/C(=O)O[C@H](COC)[C@@]2(C)C1=C(O)C(=O)C1=C2[C@H](OC(C)=O)C[C@]2(C)C(=O)CC[C@@H]12)CC=C [Sonolisib] (2.5 µM) | 0 | 0 | 3 | 0 | 0 | 0 | 0 | 0 | 0 | 0 | 0 | 0 | 0 | 0 | 0 | 0 | 0 | 0 | 0 | 0
6 | COc1ccc2c(c1)C[C@H](C(=O)Nc1ccc(-c3cn[nH]c3)cc1OCCN(C)C)CO2 [Chroman 1] (10 µM) | 0 | 0 | 0 | 0 | 0 | 0 | 0 | 0 | 0 | 0 | 0 | 0 | 0 | 0 | 0 | 0 | 0 | 0 | 0 | 0
7 | N#C/C(=C\c1ccc[nH]1)c1ccc(Cl)c(Cl)c1 (2.5 µM) | 0 | 0 | 0 | 0 | 0 | 0 | 0 | 0 | 0 | 0 | 0 | 0 | 0 | 0 | 0 | 0 | 0 | 0 | 0 | 0
8 | C[C@H](Nc1ccc2c(c1)OCCn1cc(N3C(=O)OC[C@H]3C(F)F)nc1-2)C(N)=O (10 µM) | 0 | 0 | 0 | 0 | 4 | 0 | 0 | 0 | 0 | 0 | 0 | 0 | 0 | 0 | 0 | 0 | 0 | 0 | 0 | 0
9 | COc1cc(Nc2nc3ccccc3nc2NS(=O)(=O)c2ccc(NC(=O)c3ccc(C)c(OC)c3)cc2)cc(OC)c1 (10 µM) | 0 | 0 | 0 | 0 | 0 | 0 | 0 | 0 | 0 | 0 | 0 | 0 | 0 | 0 | 0 | 0 | 0 | 0 | 0 | 0
10 | COC(=O)/C=C/c1ccc(O)c(OC)c1 [Ferulic acid methyl ester] (10 µM) | 0 | 0 | 0 | 0 | 0 | 0 | 0 | 0 | 0 | 0 | 0 | 0 | 0 | 0 | 0 | 0 | 0 | 0 | 0 | 0
11 | CN(C)CCCn1cc(C2=C(c3c[nH]c4ccccc34)C(=O)NC2=O)c2ccccc21 [Bisindolylmaleimide I] (2.5 µM) | 0 | 0 | 0 | 0 | 0 | 0 | 0 | 0 | 0 | 0 | 0 | 0 | 0 | 0 | 0 | 0 | 0 | 0 | 0 | 0
12 | O=c1cc(-c2ccc(O)cc2)oc2cc(O)c(O)c(O)c12 [Scutellarein] (10 µM) | 0 | 0 | 0 | 0 | 0 | 0 | 0 | 0 | 0 | 0 | 0 | 0 | 0 | 0 | 0 | 0 | 0 | 0 | 0 | 0
13 | CNC[C@@H](NC(=O)c1ccc(-c2nc([C@H]3CC[C@H](O)[C@@H](F)C3)cnc2N)cc1F)c1cc(F)cc(Br)c1 [Rineterkib] (10 µM) | 0 | 0 | 0 | 0 | 0 | 0 | 0 | 0 | 0 | 0 | 0 | 0 | 0 | 0 | 0 | 0 | 0 | 0 | 0 | 0
14 | O=c1cc(-c2ccc(O)cc2)oc2cc(O)c([C@@H]3O[C@H](CO)[C@@H](O)[C@H](O)[C@H]3O)c(O)c12 [Isovitexin] (10 µM) | 0 | 0 | 0 | 0 | 0 | 0 | 0 | 0 | 0 | 0 | 0 | 0 | 0 | 0 | 0 | 0 | 0 | 0 | 0 | 0
15 | Cn1cc(-c2ccc3nnc(Sc4ccc5nn(C)cc5c4)n3n2)cn1 [c-Met inhibitor 1] (10 µM) | 0 | 0 | 0 | 0 | 0 | 0 | 0 | 0 | 0 | 0 | 0 | 0 | 0 | 0 | 0 | 0 | 0 | 0 | 0 | 0
16 | NC(=O)c1ccc2nc(-c3ccc(C4(N)CCC4)cc3)c(-c3ccccc3)n2n1 (10 µM) | 0 | 0 | 0 | 0 | 0 | 0 | 0 | 0 | 0 | 0 | 0 | 0 | 0 | 0 | 0 | 0 | 0 | 0 | 0 | 0
17 | O=C(c1ccc(NS(=O)(=O)c2cccc3cccnc23)cc1)N1CCN(CC2CC2)CC1 [Mitapivat] (10 µM) | 0 | 0 | 0 | 0 | 0 | 0 | 0 | 0 | 0 | 0 | 0 | 0 | 0 | 0 | 0 | 0 | 0 | 0 | 0 | 0
18 | CCc1ccc(NC(=O)Nc2ccccc2)cc1 (10 µM) | 0 | 0 | 0 | 0 | 0 | 0 | 0 | 1 | 0 | 0 | 0 | 0 | 0 | 0 | 0 | 0 | 0 | 0 | 0 | 0
19 | O=C1c2c(O)cc(O)cc2O[C@H](c2cc(O)c(O)c(O)c2)[C@H]1O [Dihydromyricetin] (10 µM) | 0 | 0 | 0 | 0 | 0 | 0 | 0 | 0 | 0 | 0 | 0 | 0 | 0 | 0 | 0 | 0 | 0 | 0 | 0 | 0
20 | COc1ccc(C(=O)c2cn(C(C)C)c3ncnc(N)c23)cc1NC(=O)Nc1ccc(Cl)cc1Cl (10 µM) | 0 | 0 | 2 | 0 | 0 | 0 | 0 | 0 | 0 | 0 | 0 | 0 | 0 | 0 | 0 | 0 | 4 | 0 | 0 | 0
21 | CC(C)c1cnn2c(NCc3ccccc3)cc(NCCCCCCN)nc12 [BS-181 (hydrochloride)] (10 µM) | 0 | 0 | 1 | 0 | 0 | 0 | 0 | 0 | 0 | 0 | 0 | 0 | 0 | 0 | 0 | 0 | 0 | 0 | 0 | 0
22 | CN(C)C(=O)c1cc2cnc(Nc3ccc(NC(=O)C4(C(=O)Nc5ccc(F)cc5)CC4)cc3)nc2n1C1CCCC1 (2 µM) | 0 | 0 | 3 | 0 | 0 | 0 | 0 | 0 | 0 | 0 | 0 | 0 | 1 | 1 | 0 | 1 | 0 | 0 | 0 | 0
23 | CC(C)(C)S(=O)(=O)c1ccc2nccc(Nc3n[nH]c4ccc(F)cc34)c2c1 (10 µM) | 0 | 0 | 0 | 0 | 0 | 0 | 0 | 0 | 0 | 0 | 0 | 0 | 0 | 0 | 0 | 0 | 0 | 0 | 0 | 0
24 | O=C(N/N=C/c1ccc([N+](=O)[O-])o1)c1ccc(O)cc1 [Nifuroxazide] (10 µM) | 2 | 0 | 2 | 1 | 3 | 0 | 1 | 2 | 0 | 1 | 2 | 0 | 0 | 2 | 3 | 0 | 3 | 2 | 3 | 0
25 | CN(c1ccc(C(F)(F)F)cc1)S(=O)(=O)c1ccc(C(=O)Nc2nc(-c3ccccn3)cs2)cc1 (2.5 µM) | 0 | 0 | 0 | 0 | 0 | 0 | 0 | 0 | 0 | 0 | 0 | 0 | 0 | 0 | 0 | 0 | 0 | 0 | 0 | 0
26 | O=S(=O)(N=Cc1c(O)ccc2ccccc12)c1cccs1 (10 µM) | 0 | 0 | 0 | 0 | 0 | 0 | 0 | 0 | 0 | 0 | 0 | 0 | 0 | 0 | 0 | 0 | 0 | 0 | 0 | 0

Some of these compounds in order of heavy-atom count, largest number first.
Row | Structure (SMILES) | number of time points (CSNK1A1) | number of time points (CSNK1D) | number of time points (DDR1) | number of time points (DYRK1B) | number of time points (DYRK2) | number of time points (EGFR) | number of time points (EGFR_G719S) | number of time points (EGFR_G719S_T790M) | number of time points (EGFR_L718V) | number of time points (EGFR_L858R) | number of time points (EGFR_L861Q) | number of time points (EGFR_T790M) | number of time points (EPHA2) | number of time points (ERBB3) | number of time points [1] | number of time points (ERN1) | number of time points (FGFR1) | number of time points (FGFR2) | number of time points (FGFR3) | number of time points (FGR)
25 | CN(c1ccc(C(F)(F)F)cc1)S(=O)(=O)c1ccc(C(=O)Nc2nc(-c3ccccn3)cs2)cc1 (2.5 µM) | 0 | 0 | 0 | 0 | 0 | 0 | 0 | 0 | 0 | 0 | 0 | 0 | 0 | 0 | 0 | 0 | 0 | 0 | 0 | 0
11 | CN(C)CCCn1cc(C2=C(c3c[nH]c4ccccc34)C(=O)NC2=O)c2ccccc21 [Bisindolylmaleimide I] (2.5 µM) | 0 | 0 | 0 | 0 | 0 | 0 | 0 | 0 | 0 | 0 | 0 | 0 | 0 | 0 | 0 | 0 | 0 | 0 | 0 | 0
26 | O=S(=O)(N=Cc1c(O)ccc2ccccc12)c1cccs1 (10 µM) | 0 | 0 | 0 | 0 | 0 | 0 | 0 | 0 | 0 | 0 | 0 | 0 | 0 | 0 | 0 | 0 | 0 | 0 | 0 | 0
